Data on 1 compound can be found in article PMC3954757, “Novel Potent Imidazo[1,2-a]pyridine-N-Glycinyl-Hydrazone Inhibitors of TNF-α Production: In Vitro and In Vivo Studies” (PLoS ONE, 2014).

Assay [1] deals with TNF-α production. Briefly: LPS-induced TNF-α production in culture of mice peritoneal macrophage (ELISA). Particulars: Mus musculus, read-out: TNF-α IC50.
The test system of assay [2] is murine peritoneal macrophages. The experiment in a line: Cell viability by MTT assay. The assay is classed as cell-based, mouse. On the procedure:
The peritoneal macrophage were obtained and plated as described above. The cells were incubated with the vehicle or compounds for 20 hours when was added 200 µL of RPMI medium containing 0.5 mg/mL MTT […] (3-(4,5-dimethylthiazol-2-yl)-2,5-diphenyltetrazolium bromide) followed by 4 hour of incubation at 37°C in a 5% CO2 atmosphere. After incubation supernatants were discarded and 200 µL DMSO (dimethylsulfoxide) were added to solubilize the MTT-formazan crystals. The optical density was measured in a microplate reader at 490 nm. The control groups consisted of cells with medium plus vehicle used to dissolve the substances and was considered as 100% of viable cells. Results are expressed as percentage of viable cells when compared with control groups.

As usually defined, the IC50 is the concentration that inhibits the measured activity by half. Regarding `C[S+]([O-])c1ccc(-c2nc(-c3ccncc3)c(-c3ccc(F)cc3)[nH]2)cc1` (stereo not drawn) [SB-203580, reference compound], the IC50 in assay [1] came to 0.22 µM; in assay [2] (Mus musculus, Peritoneal macrophage, read-out: % of cell viability IC50), 9.7 µM. In assay [2] (SI = cytotoxicity IC50/anti-TNF-α IC50), the “Selectivity Index (SI)” value is reported as 44.0.
